Source: US20140255921
Construct, isoform or probe ends are uncertain for at least one entry. Protein sequences can lack the tags named with them.

Experiments:
Experiment in all cases: activity assay
Conditions in all cases: four spacer 9 (triethylene glycol) groups at 3' end of SEQ 63; unwinding rate relative to native 3' (internal binding); 400 mM NaCl, 1 mM ATP, 1 mM MgCl2, pH 8.0; purified recombinant protein; label: 5' FAM on SEQ 63, 3' BHQ1 on SEQ 62
[1] = tested on: T1, Hel308 Csy (Cenarchaeum symbiosum)
T1 sequence: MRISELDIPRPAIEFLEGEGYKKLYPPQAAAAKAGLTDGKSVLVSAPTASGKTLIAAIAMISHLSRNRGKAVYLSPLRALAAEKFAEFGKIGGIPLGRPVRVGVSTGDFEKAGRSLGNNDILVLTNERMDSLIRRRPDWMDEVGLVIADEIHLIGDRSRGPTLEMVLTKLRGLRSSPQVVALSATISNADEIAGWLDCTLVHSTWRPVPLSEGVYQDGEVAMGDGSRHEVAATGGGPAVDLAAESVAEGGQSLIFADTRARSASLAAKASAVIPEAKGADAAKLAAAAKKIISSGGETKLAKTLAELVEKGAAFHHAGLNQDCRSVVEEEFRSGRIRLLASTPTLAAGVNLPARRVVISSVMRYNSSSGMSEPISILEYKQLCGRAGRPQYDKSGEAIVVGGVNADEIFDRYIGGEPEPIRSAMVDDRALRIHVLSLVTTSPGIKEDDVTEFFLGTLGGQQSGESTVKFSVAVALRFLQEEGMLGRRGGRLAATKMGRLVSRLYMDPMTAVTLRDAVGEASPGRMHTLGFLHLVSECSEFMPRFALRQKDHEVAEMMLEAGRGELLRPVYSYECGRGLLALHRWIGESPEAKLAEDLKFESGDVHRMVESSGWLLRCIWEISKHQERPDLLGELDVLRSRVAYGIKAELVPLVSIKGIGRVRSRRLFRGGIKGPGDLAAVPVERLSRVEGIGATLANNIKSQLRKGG

[2] = tested on: T2, Hel308 Mhu (Methanospirillum hungatei)
T2 sequence: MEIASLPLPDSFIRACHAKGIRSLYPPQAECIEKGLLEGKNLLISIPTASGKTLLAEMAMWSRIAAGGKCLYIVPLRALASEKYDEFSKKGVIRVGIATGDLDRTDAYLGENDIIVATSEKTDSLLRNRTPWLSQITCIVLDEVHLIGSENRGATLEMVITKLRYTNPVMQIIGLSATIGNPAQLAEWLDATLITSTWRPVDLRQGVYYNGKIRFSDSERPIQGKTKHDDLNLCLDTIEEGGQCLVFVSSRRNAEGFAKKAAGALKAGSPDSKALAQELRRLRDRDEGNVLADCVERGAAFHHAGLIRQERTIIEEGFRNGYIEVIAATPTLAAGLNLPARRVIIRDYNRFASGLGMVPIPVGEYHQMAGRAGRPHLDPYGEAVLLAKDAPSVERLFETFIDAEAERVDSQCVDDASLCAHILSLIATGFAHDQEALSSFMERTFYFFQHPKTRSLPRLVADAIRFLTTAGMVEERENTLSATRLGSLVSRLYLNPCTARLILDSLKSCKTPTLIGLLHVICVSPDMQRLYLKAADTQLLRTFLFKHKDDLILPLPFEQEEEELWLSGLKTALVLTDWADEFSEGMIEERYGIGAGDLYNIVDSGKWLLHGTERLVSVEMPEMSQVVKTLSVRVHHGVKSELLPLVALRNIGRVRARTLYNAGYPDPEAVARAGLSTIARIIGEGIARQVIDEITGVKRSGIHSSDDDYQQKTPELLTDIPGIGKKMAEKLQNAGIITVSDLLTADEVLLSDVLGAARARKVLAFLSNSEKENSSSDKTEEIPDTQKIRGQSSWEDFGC

[3] = tested on: T3, Hel308 Min (Methanocaldococcus infernus)
T3 sequence: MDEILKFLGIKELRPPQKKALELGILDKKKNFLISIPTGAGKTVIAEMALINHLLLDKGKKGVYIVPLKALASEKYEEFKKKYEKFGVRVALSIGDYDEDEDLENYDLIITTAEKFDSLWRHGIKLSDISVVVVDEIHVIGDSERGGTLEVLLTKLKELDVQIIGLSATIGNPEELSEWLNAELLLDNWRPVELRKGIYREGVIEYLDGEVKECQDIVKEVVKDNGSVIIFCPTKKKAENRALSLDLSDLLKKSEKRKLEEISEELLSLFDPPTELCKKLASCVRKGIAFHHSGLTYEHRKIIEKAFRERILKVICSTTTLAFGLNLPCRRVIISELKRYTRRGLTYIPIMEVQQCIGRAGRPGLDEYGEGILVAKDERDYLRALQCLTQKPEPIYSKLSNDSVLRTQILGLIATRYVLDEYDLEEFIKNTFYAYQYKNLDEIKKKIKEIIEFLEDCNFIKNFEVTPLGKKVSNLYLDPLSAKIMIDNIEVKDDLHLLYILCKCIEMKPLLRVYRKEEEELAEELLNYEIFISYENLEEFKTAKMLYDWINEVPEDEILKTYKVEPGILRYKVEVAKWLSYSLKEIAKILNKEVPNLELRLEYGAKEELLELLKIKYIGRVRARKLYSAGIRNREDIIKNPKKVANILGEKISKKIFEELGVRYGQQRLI

[4] = tested on: T4, Hel308 Mma (Methanococcus maripaludis)
T4 sequence: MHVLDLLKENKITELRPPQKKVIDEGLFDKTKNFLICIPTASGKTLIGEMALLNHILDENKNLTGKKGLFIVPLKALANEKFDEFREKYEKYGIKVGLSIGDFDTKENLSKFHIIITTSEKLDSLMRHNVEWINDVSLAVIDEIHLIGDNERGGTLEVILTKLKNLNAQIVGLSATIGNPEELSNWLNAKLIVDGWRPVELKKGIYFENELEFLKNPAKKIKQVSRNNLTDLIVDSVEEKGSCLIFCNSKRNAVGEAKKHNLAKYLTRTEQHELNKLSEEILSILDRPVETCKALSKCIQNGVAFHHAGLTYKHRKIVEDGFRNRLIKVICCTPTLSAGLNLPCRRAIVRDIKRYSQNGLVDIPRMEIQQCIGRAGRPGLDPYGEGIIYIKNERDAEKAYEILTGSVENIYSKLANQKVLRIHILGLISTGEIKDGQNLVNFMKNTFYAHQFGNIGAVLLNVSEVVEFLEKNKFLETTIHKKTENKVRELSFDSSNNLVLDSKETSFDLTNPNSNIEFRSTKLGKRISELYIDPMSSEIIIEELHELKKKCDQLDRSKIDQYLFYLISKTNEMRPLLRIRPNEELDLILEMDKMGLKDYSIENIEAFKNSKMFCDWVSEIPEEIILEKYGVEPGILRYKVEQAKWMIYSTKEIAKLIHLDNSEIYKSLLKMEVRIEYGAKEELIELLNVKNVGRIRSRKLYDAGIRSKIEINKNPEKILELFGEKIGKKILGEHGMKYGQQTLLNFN

[5] = tested on: T5, Hel308 Tga (Thermococcus gammatolerans)
T5 sequence: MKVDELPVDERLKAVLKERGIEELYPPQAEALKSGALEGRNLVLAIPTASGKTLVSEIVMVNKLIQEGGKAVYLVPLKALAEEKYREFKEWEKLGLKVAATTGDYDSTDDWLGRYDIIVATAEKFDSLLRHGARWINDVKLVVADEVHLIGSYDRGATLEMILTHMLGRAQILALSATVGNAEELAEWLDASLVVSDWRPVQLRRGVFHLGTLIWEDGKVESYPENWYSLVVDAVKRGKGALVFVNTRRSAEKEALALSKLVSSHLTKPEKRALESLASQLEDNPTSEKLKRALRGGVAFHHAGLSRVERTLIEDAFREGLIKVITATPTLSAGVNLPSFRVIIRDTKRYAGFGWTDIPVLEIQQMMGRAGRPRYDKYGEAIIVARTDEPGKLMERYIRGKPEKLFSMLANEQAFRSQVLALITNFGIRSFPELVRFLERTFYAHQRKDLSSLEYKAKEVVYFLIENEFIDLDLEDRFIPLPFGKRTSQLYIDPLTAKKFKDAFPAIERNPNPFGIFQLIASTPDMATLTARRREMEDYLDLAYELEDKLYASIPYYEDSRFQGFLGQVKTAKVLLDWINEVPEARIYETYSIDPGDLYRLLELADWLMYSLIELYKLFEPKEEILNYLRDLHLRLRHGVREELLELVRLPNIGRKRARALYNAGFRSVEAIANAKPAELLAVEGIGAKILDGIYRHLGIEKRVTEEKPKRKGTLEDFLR

Measured: activity on this sequence

CTATTCTGTTTATGTTTCTTGTTTGTTAGCCCTATTCTGTCCCCCCCCCCACCCCCCCCC / ACAGAATAGGGCTAACAAACAAGAAACATAAACAGAATAG [3'-spacer 9 overhang substrate (Example 4)]
> 20%: all assays above
